Consider 2 substances from PMC10036544.

By UniProt entry, the sequences of proteins in these tests, tags left out. Residues count along the entry.
UniProt Q8N8S7: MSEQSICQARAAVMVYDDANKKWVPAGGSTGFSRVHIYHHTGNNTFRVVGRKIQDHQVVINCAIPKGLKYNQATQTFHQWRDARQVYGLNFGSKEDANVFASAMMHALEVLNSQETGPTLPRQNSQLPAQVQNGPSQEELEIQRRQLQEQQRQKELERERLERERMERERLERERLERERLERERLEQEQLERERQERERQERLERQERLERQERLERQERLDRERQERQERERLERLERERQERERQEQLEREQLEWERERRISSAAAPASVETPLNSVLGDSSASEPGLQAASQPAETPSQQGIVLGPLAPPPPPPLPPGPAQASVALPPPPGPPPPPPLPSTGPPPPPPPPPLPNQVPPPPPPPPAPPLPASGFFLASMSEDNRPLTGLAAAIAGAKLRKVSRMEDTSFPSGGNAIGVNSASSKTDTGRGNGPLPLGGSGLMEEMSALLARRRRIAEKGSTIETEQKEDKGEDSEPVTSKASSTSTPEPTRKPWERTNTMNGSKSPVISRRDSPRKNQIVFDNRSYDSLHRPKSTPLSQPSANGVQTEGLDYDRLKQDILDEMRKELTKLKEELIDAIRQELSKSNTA
UniProt P02545, residues 1-646: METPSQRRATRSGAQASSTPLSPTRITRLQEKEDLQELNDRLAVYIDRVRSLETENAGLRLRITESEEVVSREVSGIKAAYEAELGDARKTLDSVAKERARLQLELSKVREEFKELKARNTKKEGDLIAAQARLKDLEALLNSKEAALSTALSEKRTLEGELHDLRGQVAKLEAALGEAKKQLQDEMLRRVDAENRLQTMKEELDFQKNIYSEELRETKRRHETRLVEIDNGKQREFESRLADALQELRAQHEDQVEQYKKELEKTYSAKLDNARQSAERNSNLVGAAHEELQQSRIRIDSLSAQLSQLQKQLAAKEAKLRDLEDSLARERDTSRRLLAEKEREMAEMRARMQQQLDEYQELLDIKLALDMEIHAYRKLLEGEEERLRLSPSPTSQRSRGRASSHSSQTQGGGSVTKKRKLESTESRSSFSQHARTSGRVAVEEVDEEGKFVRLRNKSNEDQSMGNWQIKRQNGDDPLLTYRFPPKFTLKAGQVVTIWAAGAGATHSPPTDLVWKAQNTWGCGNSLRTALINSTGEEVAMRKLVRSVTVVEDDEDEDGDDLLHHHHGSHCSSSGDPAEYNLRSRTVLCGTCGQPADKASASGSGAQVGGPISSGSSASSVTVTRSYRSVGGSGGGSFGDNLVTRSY

No constants are given. Whether binding was seen depends on the method and setting. In cells and extracts the contact can be indirect. Some entries that bind do so weakly or less than the wild type.

This assay concerns the target nesprin-2 (encoded by SYNE2), endogenous (human (endogenous in Met4)) (UniProt Q8WXH0). Briefly: co-IP; endogenous nesprin-2 immunoprecipitated (anti-nesprin-2, Abcam ab217057, Protein G Dynabeads, overnight, 4 °C) from 1 mg lysate in NETN buffer (100 mM NaCl, 20 mM Tris-HCl pH 7.5, 0.5 mM EDTA, 0.5% NP-40); western blotting; Met4 cells, and for actin, lamin A/C and SUN2 also Met4 Mena^−/− cells (for actin and lamin A/C also Met4 Mena^−/− +Mena11a cells). A general note: In western blotting, separated proteins are transferred to a membrane and probed.

With “Mena (human Enabled homologue, encoded by ENAH) (from UniProt Q8N8S7 1-591)”, the binding result is recorded as “binds”. Under lamin A/C (from UniProt P02545 1-646) stands “binds”.
